Literature values, collected in US9764059B2, “Chlorhexidine gluconate containing solvent adhesive” (Avery Dennison Corporation, priority 2011, dated 2017).
For at least one compound, name, drawing or mass did not settle the structure.

Conditions: cited from earlier work

SMILES: N=C(NCCCCCCNC(=N)NC(=N)Nc1ccc(Cl)cc1)NC(=N)Nc1ccc(Cl)cc1.O=C(O)[C@H](O)[C@@H](O)[C@H](O)[C@H](O)CO.O=C(O)[C@H](O)[C@@H](O)[C@H](O)[C@H](O)CO [chlorhexidine gluconate]
- sensitivity to high temperatures: sensitive to high temperatures
